{"source": "PubChem BioAssay AID1159584, Peter MacCallum Cancer Centre | 2016", "purpose": "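Genes whose loss is lethal only together with E-cadherin loss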 (primary screen)", "cells": "human MCF10A breast epithelial cells, parental and CDH1-null", "reagent": "siRNA against human genes", "measured": "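ATP luminescence (CellTiter-Glo) viability per line relative to mean mock wells over all plates, and the ratio of CDH1-null to parental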", "scale": "CDH1-null / parental viability ratio: higher = CDH1-null cells survive relatively better than parental", "note": "Here is an unselected part of about 18,000 reagents tested. Not all columns of the deposit are shown. Not given: the amount of reagent, the time to read-out."}
{"Gene":"SCNN1D (sodium channel epithelial 1 subunit delta)","CDH1-null / parental viability ratio":1.28}
{"Gene":"BARHL1 (BarH like homeobox 1)","CDH1-null / parental viability ratio":1.23}
{"Gene":"NFKBIB (NFKB inhibitor beta)","CDH1-null / parental viability ratio":0.76}
{"Gene":"CCS (copper chaperone for superoxide dismutase)","CDH1-null / parental viability ratio":1.02}
{"Gene":"RNF40 (ring finger protein 40)","CDH1-null / parental viability ratio":0.83}
{"Gene":"ADGRL4 (adhesion G protein-coupled receptor L4)","CDH1-null / parental viability ratio":1.61}
{"Gene":"SPRN (shadow of prion protein)","CDH1-null / parental viability ratio":0.77}
{"Gene":"DAGLB (diacylglycerol lipase beta)","CDH1-null / parental viability ratio":0.97}
{"Gene":"TENT4B (terminal nucleotidyltransferase 4B)","CDH1-null / parental viability ratio":0.94}
{"Gene":"TSSK4 (testis specific serine kinase 4)","CDH1-null / parental viability ratio":0.98}
{"Gene":"RAB44 (RAB44, member RAS oncogene family)","CDH1-null / parental viability ratio":1.12}
{"Gene":"ROPN1B (rhophilin associated tail protein 1B)","CDH1-null / parental viability ratio":0.94}
{"Gene":"CD300A (CD300a molecule)","CDH1-null / parental viability ratio":0.91}
{"Gene":"KCNJ10 (potassium inwardly rectifying channel subfamily J member 10)","CDH1-null / parental viability ratio":1.32}
{"Gene":"SLC52A2","CDH1-null / parental viability ratio":0.88}
{"Gene":"MYPOP (Myb related transcription factor, partner of profilin)","CDH1-null / parental viability ratio":1.31}
{"Gene":"H4C5 (H4 clustered histone 5)","CDH1-null / parental viability ratio":1.18}
{"Gene":"MOGAT3 (monoacylglycerol O-acyltransferase 3)","CDH1-null / parental viability ratio":1.02}
{"Gene":"GJD4 (gap junction protein delta 4)","CDH1-null / parental viability ratio":0.79}
{"Gene":"PRR30 (proline rich 30)","CDH1-null / parental viability ratio":0.9}
{"Gene":"CLIC4 (CLIC family member 4)","CDH1-null / parental viability ratio":1.3}
{"Gene":"GALNT15 (polypeptide N-acetylgalactosaminyltransferase 15)","CDH1-null / parental viability ratio":0.82}
{"Gene":"MYOZ3 (myozenin 3)","CDH1-null / parental viability ratio":1.02}
{"Gene":"ABCA1 (ATP binding cassette subfamily A member 1)","CDH1-null / parental viability ratio":1.16}
